These are yes or no findings as the source states them, for the method shown. Binding seen in cells or lysates may run through a third protein. Some results given as binding are weak or reduced against the parent protein; the word gives no strength.
Columns and labels:
[1] = biological target: T1, ATP13A2 (human (endogenous in HeLa)) (UniProt Q9NQ11); assay: proximity ligation; fixed, permeabilised HeLa cells; primary antibodies against ATP13A2 and MYCBP2; signal when the two proteins are within 40 nm; epifluorescence microscopy
T1 sequence: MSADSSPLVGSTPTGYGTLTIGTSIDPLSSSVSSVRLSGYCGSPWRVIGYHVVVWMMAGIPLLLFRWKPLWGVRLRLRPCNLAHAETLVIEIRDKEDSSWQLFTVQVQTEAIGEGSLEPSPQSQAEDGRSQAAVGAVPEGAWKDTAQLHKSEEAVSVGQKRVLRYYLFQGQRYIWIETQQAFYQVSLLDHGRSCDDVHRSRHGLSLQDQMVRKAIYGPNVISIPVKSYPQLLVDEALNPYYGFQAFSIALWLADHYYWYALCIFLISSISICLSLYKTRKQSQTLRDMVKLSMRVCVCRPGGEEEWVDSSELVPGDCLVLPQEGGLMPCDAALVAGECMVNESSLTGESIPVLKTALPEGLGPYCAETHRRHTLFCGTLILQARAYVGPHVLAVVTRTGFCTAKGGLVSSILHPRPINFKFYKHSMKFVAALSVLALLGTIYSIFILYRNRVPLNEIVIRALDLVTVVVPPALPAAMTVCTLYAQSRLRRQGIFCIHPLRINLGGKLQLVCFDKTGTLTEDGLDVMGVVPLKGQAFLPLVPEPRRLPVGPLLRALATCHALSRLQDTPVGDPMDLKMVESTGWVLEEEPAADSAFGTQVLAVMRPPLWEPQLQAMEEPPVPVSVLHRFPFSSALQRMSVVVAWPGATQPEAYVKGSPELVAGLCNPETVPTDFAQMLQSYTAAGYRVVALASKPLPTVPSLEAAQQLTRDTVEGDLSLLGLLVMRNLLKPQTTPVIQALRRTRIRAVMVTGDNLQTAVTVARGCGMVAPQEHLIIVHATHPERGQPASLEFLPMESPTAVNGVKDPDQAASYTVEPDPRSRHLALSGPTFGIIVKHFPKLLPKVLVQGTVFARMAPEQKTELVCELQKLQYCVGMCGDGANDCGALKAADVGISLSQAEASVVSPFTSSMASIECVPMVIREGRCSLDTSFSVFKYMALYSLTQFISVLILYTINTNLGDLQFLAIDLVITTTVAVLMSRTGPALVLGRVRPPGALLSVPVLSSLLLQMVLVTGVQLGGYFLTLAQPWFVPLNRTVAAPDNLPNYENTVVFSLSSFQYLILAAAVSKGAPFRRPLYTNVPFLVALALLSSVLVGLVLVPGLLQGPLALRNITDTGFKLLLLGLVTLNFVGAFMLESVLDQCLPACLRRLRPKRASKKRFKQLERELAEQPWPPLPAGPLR

The chains behind the UniProt entries cited, without tags or fusion partners.
UniProt P49815: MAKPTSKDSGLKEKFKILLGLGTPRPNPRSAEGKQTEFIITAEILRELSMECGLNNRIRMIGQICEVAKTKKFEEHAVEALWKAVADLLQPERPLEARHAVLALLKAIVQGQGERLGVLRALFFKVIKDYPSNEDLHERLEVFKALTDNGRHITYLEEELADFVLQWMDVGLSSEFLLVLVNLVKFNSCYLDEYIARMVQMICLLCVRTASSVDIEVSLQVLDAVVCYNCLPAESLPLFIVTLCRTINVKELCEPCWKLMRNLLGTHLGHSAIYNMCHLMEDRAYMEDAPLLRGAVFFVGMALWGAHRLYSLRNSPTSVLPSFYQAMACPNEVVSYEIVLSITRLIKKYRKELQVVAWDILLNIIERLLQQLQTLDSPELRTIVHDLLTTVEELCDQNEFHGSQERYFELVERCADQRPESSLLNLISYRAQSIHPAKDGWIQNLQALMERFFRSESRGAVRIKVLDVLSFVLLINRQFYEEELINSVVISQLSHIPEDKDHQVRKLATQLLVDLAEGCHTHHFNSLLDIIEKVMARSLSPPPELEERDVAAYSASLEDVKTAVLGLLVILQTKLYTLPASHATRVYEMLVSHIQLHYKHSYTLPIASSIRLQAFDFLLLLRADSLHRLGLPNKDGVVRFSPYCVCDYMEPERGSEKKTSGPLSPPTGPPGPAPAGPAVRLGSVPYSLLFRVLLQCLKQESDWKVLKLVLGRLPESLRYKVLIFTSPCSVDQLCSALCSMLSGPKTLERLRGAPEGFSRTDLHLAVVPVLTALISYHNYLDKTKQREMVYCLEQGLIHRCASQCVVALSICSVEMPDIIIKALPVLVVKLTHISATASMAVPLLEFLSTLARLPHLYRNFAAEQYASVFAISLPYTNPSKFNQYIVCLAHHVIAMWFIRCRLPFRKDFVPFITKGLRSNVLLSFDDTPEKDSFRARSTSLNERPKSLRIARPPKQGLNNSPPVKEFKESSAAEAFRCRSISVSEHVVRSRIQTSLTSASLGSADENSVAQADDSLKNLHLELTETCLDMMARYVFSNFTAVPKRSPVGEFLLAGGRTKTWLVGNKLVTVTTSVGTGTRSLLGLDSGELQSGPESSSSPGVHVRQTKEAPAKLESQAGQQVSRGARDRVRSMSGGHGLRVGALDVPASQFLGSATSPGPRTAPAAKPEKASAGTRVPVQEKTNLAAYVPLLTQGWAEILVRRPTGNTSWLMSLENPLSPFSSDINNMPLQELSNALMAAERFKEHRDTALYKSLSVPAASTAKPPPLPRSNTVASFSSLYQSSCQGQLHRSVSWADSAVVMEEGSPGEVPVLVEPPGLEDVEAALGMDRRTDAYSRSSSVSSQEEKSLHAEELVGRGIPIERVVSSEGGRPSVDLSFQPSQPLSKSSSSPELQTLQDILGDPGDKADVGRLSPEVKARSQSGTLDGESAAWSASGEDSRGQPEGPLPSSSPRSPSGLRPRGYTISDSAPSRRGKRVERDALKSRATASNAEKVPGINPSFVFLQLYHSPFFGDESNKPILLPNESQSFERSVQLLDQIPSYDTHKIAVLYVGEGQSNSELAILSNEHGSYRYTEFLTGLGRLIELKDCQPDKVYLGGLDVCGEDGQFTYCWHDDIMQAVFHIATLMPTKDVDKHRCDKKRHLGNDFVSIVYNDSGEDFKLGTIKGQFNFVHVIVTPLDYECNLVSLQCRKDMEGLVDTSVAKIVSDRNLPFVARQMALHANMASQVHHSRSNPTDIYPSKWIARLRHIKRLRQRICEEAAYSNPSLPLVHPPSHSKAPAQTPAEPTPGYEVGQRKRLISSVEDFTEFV
UniProt O75592: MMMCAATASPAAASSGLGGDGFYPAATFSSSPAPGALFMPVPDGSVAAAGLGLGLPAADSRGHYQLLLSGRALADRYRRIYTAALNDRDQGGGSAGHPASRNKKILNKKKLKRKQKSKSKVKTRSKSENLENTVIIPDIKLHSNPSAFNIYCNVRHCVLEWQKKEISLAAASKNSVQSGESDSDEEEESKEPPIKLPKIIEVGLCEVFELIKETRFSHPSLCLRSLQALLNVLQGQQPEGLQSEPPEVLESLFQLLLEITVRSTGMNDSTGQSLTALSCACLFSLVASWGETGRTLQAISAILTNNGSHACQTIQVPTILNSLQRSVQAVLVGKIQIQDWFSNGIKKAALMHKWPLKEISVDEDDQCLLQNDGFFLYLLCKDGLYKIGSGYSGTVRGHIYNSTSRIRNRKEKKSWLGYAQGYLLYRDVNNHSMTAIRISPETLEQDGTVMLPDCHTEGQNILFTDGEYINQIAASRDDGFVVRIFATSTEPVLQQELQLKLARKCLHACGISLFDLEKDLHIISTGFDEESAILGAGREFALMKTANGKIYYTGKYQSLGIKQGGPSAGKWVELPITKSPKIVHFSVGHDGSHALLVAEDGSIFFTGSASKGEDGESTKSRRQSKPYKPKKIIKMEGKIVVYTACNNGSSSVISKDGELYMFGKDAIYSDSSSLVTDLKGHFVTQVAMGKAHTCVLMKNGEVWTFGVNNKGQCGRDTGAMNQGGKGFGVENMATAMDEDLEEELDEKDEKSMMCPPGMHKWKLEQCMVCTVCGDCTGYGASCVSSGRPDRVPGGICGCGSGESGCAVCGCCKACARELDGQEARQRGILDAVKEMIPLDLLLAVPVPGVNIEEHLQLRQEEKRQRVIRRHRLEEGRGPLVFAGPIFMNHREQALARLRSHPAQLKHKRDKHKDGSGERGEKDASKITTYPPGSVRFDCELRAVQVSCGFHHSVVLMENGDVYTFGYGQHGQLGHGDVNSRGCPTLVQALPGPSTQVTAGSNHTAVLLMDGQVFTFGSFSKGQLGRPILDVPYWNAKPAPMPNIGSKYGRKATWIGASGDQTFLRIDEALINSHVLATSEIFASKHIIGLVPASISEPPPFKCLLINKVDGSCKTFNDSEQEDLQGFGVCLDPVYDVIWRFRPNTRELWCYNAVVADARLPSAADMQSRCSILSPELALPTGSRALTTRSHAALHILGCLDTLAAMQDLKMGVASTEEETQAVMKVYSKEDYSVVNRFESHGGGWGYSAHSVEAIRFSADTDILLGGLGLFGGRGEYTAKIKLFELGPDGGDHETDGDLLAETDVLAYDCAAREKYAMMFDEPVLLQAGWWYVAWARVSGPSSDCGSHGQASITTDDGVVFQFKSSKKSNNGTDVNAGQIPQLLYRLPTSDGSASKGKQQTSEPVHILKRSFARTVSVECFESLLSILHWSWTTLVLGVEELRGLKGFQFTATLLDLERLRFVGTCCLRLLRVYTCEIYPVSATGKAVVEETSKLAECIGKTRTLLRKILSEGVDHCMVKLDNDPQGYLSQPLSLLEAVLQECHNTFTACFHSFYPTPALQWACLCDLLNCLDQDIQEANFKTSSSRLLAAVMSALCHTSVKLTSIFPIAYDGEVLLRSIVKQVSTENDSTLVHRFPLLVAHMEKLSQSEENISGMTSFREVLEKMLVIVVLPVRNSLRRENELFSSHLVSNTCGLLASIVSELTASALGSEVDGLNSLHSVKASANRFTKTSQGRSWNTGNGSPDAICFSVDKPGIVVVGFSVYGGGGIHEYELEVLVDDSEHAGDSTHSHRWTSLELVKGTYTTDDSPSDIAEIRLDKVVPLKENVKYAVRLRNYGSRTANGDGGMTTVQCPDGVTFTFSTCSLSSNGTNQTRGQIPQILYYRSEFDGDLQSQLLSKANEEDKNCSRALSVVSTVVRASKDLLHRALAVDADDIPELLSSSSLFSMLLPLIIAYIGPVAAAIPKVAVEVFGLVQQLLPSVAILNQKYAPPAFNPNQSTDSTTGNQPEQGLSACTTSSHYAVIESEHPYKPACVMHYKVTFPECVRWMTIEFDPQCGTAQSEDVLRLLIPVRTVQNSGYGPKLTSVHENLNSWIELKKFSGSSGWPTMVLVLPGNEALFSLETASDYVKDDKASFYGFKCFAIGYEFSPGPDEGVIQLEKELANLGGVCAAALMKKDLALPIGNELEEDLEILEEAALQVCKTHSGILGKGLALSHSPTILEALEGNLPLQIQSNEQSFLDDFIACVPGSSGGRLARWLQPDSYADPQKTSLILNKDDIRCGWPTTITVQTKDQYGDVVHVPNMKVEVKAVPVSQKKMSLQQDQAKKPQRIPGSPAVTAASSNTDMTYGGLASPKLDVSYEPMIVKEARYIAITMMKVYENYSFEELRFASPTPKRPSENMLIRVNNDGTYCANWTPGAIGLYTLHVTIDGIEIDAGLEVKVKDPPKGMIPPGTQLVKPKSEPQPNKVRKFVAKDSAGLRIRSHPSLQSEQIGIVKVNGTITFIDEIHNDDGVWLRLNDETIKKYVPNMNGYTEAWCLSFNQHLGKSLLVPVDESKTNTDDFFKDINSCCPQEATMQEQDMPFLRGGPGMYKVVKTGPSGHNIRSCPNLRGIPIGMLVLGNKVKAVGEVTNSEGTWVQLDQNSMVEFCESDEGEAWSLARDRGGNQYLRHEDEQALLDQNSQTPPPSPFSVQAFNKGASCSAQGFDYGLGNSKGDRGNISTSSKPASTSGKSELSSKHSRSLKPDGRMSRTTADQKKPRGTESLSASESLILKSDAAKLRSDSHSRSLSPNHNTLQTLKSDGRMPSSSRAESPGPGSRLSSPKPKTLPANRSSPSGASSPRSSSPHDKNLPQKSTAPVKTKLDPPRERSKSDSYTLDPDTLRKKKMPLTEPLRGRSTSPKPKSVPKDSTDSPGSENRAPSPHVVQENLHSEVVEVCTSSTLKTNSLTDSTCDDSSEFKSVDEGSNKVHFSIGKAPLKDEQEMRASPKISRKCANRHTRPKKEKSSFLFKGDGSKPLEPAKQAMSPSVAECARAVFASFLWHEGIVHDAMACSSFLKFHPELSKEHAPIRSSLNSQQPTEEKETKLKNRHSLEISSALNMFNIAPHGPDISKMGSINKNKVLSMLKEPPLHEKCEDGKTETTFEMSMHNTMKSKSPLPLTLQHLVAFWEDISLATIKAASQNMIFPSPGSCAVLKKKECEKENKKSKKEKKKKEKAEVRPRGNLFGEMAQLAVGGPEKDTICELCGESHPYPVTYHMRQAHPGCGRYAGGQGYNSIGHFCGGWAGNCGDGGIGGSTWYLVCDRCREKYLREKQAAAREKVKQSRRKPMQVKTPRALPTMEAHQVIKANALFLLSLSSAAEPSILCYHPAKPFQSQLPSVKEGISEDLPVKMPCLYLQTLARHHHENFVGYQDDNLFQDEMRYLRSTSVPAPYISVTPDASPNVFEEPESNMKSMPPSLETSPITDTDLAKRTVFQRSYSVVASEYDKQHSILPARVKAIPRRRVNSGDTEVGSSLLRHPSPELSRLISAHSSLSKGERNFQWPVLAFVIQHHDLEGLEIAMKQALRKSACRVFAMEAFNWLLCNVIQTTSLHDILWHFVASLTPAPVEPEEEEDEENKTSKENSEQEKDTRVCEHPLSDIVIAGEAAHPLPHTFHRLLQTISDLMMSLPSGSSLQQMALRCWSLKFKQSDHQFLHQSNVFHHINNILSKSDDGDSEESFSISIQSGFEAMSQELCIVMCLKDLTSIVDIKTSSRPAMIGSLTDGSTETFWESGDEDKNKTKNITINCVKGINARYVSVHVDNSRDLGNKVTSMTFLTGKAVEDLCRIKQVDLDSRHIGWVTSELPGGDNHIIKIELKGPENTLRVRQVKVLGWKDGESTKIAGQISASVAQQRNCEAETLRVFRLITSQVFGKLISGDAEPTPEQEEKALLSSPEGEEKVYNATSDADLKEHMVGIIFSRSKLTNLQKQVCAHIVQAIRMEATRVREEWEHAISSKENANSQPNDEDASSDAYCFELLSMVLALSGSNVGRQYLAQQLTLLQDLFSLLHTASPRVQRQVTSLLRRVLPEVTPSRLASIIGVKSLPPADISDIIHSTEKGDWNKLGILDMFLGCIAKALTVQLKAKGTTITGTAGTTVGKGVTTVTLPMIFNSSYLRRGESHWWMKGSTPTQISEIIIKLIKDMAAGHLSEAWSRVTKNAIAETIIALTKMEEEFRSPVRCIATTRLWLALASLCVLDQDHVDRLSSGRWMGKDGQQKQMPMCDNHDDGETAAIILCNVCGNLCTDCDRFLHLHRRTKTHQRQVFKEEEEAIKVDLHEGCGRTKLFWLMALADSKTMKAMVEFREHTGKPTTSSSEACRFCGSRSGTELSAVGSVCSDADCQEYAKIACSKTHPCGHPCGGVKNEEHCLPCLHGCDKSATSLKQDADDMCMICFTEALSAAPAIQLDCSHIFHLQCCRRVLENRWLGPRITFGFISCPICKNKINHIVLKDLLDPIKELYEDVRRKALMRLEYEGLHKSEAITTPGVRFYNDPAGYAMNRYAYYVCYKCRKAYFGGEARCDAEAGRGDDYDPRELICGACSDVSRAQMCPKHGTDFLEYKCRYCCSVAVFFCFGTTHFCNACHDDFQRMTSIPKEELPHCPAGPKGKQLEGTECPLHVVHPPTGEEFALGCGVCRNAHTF

[2] = biological target: T1, ATP13A2 (human (endogenous in HeLa)); assay: co-IP; endogenous proteins immunoprecipitated from cleared lysates (20 mM Tris-HCl pH 7.2, 150 mM NaCl, 2 mM MgCl2, 0.5% NP-40), antibody overnight at 4 °C, Dynabeads-protein G, three washes, western blot; ATP13A2 IP (Fig. 4b); TSC2 IP from control and ATP13A2-knockdown HeLa cells (Fig. 4i)
[3] = biological target: Tuberous Sclerosis Complex 2 (TSC2) (human (endogenous in HeLa)) (UniProt P49815); assay: as above

Measured: binding

MYCBP2 (MYC-Binding Protein 2) (from UniProt O75592 1-4678)
binds: [1] | [2] | [3]

— article PMC4906231
